In the supplement of paper PMC10849652:
The list shows a part of the results.

Amino acid sequences for entries named in this document (tags omitted). A change or cut given only in a name is not applied to a line headed by its entry.
UniProt Q14103: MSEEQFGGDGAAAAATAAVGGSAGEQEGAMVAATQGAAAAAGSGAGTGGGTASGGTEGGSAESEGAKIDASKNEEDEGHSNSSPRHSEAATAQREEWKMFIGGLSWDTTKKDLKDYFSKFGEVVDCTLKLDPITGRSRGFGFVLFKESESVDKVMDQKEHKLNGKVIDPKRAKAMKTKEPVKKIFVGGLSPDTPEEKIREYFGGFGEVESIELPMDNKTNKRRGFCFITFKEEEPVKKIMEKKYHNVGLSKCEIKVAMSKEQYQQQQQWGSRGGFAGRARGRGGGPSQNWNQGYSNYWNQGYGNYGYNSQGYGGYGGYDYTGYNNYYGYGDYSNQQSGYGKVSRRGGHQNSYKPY
UniProt P50747: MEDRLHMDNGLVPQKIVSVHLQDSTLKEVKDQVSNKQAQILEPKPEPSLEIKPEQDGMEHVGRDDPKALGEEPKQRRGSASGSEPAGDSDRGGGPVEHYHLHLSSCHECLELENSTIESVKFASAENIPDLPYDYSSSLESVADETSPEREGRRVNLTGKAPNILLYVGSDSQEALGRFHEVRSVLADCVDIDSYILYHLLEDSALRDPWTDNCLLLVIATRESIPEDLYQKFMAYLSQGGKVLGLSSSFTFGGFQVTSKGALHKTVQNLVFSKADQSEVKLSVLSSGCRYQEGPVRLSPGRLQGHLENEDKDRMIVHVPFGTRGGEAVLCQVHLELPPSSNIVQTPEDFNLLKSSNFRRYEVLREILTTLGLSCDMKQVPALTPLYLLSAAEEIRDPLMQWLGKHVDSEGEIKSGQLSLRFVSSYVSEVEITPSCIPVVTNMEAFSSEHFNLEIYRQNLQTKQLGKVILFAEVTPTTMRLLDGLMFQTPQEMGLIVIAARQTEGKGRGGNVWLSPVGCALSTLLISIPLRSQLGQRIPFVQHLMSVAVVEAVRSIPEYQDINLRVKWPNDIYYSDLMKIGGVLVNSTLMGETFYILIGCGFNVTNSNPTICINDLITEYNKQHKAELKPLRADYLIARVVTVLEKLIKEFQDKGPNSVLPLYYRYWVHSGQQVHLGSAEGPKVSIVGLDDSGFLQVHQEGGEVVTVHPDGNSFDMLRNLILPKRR
UniProt Q00613: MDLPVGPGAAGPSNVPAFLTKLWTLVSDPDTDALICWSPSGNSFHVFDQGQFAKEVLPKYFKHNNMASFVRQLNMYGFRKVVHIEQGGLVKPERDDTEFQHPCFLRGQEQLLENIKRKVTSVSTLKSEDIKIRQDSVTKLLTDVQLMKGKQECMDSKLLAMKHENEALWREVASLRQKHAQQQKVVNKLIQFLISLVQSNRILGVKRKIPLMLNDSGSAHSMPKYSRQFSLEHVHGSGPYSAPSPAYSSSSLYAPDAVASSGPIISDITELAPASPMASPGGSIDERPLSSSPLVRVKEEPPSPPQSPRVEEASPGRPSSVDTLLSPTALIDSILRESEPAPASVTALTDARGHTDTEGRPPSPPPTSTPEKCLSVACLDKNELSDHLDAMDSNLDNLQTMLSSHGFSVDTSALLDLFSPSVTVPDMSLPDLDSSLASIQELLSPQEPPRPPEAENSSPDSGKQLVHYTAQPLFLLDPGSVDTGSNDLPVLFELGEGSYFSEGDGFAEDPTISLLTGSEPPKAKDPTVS
UniProt P09651: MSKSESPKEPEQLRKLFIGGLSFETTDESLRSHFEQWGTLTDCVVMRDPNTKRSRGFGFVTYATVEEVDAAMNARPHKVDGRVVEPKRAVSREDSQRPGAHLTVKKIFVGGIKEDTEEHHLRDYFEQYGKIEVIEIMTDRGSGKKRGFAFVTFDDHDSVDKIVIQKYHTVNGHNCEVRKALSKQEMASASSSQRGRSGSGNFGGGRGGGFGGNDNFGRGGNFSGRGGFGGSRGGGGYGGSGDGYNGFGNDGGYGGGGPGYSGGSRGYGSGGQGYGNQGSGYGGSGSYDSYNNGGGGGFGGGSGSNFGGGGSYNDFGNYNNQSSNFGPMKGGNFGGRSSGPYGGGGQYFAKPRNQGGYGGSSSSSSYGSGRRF
UniProt P0DMV8, whole entry, looked up: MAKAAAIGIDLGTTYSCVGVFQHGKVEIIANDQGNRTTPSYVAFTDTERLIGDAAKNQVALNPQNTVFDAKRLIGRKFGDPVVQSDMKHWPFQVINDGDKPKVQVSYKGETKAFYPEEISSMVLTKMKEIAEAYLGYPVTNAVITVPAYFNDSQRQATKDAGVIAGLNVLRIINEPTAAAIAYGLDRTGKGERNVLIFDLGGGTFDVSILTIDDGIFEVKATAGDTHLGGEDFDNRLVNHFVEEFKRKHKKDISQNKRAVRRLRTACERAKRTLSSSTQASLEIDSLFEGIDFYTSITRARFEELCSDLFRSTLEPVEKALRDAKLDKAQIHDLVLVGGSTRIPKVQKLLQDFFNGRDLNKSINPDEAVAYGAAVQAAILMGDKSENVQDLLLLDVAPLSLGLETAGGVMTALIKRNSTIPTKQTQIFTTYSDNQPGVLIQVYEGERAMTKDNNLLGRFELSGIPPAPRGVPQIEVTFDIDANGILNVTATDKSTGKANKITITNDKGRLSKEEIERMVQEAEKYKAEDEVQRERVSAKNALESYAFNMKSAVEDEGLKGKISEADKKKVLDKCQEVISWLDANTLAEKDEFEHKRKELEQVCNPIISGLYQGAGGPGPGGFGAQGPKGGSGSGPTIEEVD
UniProt P11142, whole entry, looked up: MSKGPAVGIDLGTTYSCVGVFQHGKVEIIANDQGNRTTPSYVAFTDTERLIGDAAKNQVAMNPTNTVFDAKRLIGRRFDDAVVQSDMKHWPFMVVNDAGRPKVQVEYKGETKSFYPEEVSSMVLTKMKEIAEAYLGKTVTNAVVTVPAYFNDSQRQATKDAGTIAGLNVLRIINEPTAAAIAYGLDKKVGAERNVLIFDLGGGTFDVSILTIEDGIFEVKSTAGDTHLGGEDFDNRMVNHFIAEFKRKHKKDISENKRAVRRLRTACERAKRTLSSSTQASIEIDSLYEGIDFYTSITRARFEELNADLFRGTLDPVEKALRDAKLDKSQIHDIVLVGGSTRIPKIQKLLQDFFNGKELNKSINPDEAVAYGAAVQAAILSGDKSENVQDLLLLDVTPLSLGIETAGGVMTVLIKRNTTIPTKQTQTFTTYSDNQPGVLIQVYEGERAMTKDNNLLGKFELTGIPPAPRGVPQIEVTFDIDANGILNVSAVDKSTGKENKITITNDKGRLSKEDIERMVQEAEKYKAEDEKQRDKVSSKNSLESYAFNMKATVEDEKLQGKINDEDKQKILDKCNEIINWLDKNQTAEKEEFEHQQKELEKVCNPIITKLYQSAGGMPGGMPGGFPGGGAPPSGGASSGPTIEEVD
UniProt Q03014: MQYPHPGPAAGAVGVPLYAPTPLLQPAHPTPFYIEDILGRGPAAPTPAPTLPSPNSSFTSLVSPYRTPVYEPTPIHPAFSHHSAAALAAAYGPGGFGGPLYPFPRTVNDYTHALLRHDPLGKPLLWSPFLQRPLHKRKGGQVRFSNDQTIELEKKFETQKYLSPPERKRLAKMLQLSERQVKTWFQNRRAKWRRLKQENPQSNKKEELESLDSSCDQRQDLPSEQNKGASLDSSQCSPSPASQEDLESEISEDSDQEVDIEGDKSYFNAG
UniProt P04792, whole entry, looked up: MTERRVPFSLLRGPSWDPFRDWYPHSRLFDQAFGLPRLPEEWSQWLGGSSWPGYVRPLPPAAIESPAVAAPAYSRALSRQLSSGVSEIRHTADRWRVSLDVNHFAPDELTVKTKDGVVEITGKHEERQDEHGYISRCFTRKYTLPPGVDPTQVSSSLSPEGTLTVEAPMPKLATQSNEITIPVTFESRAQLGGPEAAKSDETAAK
UniProt P17482: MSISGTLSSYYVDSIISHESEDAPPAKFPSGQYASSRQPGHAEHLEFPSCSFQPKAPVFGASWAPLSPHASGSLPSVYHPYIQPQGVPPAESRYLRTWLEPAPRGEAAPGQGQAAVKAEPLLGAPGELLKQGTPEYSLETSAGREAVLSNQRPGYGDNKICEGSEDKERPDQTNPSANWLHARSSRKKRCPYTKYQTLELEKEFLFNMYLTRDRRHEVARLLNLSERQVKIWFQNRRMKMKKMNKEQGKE
UniProt Q5SSJ5: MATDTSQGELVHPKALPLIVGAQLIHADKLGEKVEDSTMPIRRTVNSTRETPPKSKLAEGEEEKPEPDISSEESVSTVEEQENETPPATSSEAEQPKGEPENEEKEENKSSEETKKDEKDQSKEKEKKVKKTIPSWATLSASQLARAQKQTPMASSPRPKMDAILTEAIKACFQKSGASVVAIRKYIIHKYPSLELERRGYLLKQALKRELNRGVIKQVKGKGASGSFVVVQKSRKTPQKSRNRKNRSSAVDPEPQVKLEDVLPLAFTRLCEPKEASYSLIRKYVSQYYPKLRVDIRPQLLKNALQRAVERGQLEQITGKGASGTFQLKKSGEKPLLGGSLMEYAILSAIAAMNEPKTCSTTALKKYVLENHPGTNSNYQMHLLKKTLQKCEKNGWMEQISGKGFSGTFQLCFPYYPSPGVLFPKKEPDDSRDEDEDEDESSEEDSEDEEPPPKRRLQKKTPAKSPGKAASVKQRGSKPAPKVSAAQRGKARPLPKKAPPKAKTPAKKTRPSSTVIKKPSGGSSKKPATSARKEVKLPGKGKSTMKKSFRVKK
UniProt Q86YM7: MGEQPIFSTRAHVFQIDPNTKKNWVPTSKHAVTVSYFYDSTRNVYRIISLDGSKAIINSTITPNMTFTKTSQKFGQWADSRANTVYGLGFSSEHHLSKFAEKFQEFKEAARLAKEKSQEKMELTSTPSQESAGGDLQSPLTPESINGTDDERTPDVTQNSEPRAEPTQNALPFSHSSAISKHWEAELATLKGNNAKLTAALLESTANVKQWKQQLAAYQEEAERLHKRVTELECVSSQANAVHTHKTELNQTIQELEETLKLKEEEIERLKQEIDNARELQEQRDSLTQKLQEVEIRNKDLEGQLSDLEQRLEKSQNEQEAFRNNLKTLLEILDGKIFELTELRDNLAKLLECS
UniProt P51991: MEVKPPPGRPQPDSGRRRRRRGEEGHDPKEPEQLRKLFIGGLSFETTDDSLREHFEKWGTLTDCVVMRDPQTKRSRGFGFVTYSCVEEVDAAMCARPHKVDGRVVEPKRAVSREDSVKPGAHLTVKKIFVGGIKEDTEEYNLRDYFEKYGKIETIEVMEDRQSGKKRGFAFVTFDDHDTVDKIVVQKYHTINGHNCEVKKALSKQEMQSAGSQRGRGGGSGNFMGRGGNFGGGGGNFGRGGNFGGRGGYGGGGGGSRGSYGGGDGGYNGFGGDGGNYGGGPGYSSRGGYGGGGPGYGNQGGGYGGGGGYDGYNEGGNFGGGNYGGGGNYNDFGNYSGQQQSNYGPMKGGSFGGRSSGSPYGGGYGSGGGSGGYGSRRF
UniProt O00291: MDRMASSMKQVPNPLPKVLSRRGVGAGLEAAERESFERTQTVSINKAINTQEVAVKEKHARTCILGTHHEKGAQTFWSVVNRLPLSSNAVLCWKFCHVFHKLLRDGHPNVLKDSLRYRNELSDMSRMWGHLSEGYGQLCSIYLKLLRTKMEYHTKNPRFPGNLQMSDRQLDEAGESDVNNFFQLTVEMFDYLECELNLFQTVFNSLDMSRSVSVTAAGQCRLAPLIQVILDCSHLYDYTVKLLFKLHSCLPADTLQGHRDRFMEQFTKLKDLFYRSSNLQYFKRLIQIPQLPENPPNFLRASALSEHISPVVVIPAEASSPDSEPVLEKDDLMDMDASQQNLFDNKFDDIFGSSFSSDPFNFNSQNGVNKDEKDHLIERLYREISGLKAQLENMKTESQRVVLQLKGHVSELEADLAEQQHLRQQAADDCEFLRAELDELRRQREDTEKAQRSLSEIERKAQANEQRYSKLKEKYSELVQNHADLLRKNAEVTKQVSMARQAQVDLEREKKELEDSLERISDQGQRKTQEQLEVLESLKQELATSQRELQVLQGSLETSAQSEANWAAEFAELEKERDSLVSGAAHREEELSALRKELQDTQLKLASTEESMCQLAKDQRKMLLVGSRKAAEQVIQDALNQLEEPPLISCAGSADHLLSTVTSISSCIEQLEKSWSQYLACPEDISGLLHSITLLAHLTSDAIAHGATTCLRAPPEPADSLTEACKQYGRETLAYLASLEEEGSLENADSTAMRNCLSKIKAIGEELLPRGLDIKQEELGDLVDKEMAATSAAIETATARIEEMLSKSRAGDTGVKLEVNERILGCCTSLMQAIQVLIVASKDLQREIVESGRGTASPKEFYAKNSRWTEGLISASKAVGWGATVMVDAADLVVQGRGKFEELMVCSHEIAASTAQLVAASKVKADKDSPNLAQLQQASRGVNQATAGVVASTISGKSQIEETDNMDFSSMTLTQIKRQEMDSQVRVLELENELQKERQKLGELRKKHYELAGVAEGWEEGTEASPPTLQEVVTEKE
UniProt P09429: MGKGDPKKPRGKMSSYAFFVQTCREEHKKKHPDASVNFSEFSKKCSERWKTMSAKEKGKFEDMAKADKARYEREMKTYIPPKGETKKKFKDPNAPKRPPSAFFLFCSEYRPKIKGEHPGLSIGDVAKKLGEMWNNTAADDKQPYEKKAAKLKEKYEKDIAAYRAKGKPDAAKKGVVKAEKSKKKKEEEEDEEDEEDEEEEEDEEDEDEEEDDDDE

Compound: CC1=C2C(=CC=C1)N=C(N(C2=O)C3=CC=CC=C3C)CN4C=NC5=C(N=CN=C54)N
Assay: log2 fold change, soluble protein after heating vs DMSO (PISA); higher = thermal stabilisation; K562 cells, 10 uM, 30 min; active = over 0.2 and 3.5 SD of the protein, either way, in both replicates (recomputed)
In short: (§1)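 K562 cells (2×10^6 cells/mL) were treated with 10 μM compound for 30 min, and aliquots were heated for 3 min over 48°C-58°C. Pooled aliquots were extracted in PBS with 0.5% NP-40 at 4°C, and the supernatant after 21,000xg for 90 min was measured by TMTpro 16plex LC-MS/MS with channel sums equalised. Reported thermal stability, relative to control samples and from duplicates, is a log2 fold change.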

| Target | log2 fold change |
| --- | --- |
| HNRNPD (UniProt Q14103) | inactive: -0.068 |
| HLCS (UniProt P50747) | inactive: 0.159 |
| HNRNPR isoform 2 (UniProt O43390) | inactive: -0.105 |
| HSF1 (UniProt Q00613) | inactive: 0.265 |
| HNRNPA2B1 (UniProt P22626) | inactive: -0.181 |
| HNRNPA1 (UniProt P09651) | inactive: -0.151 |
| HOOK3 (UniProt Q86VS8) | inactive: 0.018 |
| HSPA1A (UniProt P0DMV8) | inactive: -0.058 |
| HSPA8 (UniProt P11142) | inactive: -0.02 |
| HHEX (UniProt Q03014) | inactive: 0.469 |
| HSPB1 (UniProt P04792) | inactive: 0.039 |
| HNRNPK isoform 2 (UniProt P61978) | inactive: 0.047 |
| HOXB9 (UniProt P17482) | inactive: 0.128 |
| HP1BP3 (UniProt Q5SSJ5) | inactive: 0.087 |
| HPS1 (UniProt Q92902) | inactive: 0.11 |
| HSP90AA1 isoform 2 (UniProt P07900) | inactive: -0.002 |
| HOMER1 (UniProt Q86YM7) | inactive: 0.02 |
| HNRNPA3 (UniProt P51991) | inactive: -0.179 |
| HIP1R (UniProt O75146) | inactive: 0.1 |
| HIP1 (UniProt O00291) | inactive: 0.106 |

Compound: Cc1sc2c(c1C)C(c1ccc(Cl)cc1)=N[C@@H](CC(=O)OC(C)(C)C)c1nnc(C)n1-2
Assay: as above
In short: as §1

| Target | log2 fold change |
| --- | --- |
| HMBS (UniProt F5H226) | inactive: 0.039 |
| HUWE1 (UniProt Q7Z6Z7) | inactive: -0.002 |
| HNRNPUL2 (UniProt Q1KMD3) | inactive: 0.105 |
| HSPA4L (UniProt O95757) | inactive: 0 |
| HMGB1 (UniProt P09429) | inactive: -0.063 |
| HIKESHI (UniProt Q53FT3) | inactive: -0.091 |
| HSPE1 (UniProt P61604) | inactive: -0.099 |
| HINT3 (UniProt Q9NQE9) | inactive: -0.029 |
| HMGN3 (UniProt Q15651) | inactive: 0.146 |
| HIST2H2BF isoform 2 (UniProt Q5QNW6) | inactive: -0.082 |
| HMGCS1 (UniProt Q01581) | inactive: -0.004 |
| HMGN1 (UniProt P05114) | inactive: 0.027 |
| HTRA2 (UniProt O43464) | inactive: -0.024 |
| HNRNPD (UniProt Q14103) | inactive: 0.129 |
| HLCS (UniProt P50747) | inactive: -0.031 |
| HNRNPR isoform 2 (UniProt O43390) | inactive: 0.122 |
| HSF1 (UniProt Q00613) | inactive: 0.001 |

| Target | log2 fold change |
| --- | --- |
| HNRNPA2B1 (UniProt P22626) | inactive: 0.223 |
| HNRNPA1 (UniProt P09651) | inactive: 0.134 |
| HOOK3 (UniProt Q86VS8) | inactive: 0 |
| HSPA1A (UniProt P0DMV8) | inactive: 0.004 |
| HSPA8 (UniProt P11142) | inactive: 0.005 |
| HHEX (UniProt Q03014) | inactive: 0.026 |
| HSPB1 (UniProt P04792) | inactive: 0.006 |
| HNRNPK isoform 2 (UniProt P61978) | inactive: -0.023 |
| HOXB9 (UniProt P17482) | inactive: -0.043 |
| HP1BP3 (UniProt Q5SSJ5) | inactive: 0.142 |
| HPS1 (UniProt Q92902) | inactive: -0.011 |
| HSP90AA1 isoform 2 (UniProt P07900) | inactive: 0.002 |
| HOMER1 (UniProt Q86YM7) | inactive: -0.005 |
| HNRNPA3 (UniProt P51991) | inactive: 0.102 |
| HIP1R (UniProt O75146) | inactive: -0.031 |
| HIP1 (UniProt O00291) | inactive: 0.019 |

Compound: c1ccc([C@@H]2C[C@H]2NC2CCNCC2)cc1
Assay: as above
In short: as §1

| Target | log2 fold change |
| --- | --- |
| HMBS (UniProt F5H226) | inactive: 0.084 |
| HUWE1 (UniProt Q7Z6Z7) | inactive: -0.019 |
| HNRNPUL2 (UniProt Q1KMD3) | inactive: 0.04 |
| HSPA4L (UniProt O95757) | inactive: -0.004 |
| HMGB1 (UniProt P09429) | inactive: -0.08 |
| HIKESHI (UniProt Q53FT3) | inactive: -0.027 |
| HSPE1 (UniProt P61604) | inactive: -0.02 |
| HINT3 (UniProt Q9NQE9) | inactive: 0.022 |
| HMGN3 (UniProt Q15651) | inactive: 0.083 |
| HIST2H2BF isoform 2 (UniProt Q5QNW6) | inactive: 0.125 |
| HMGCS1 (UniProt Q01581) | inactive: 0.023 |
| HMGN1 (UniProt P05114) | inactive: 0.048 |
| HTRA2 (UniProt O43464) | inactive: 0.016 |
| HNRNPD (UniProt Q14103) | inactive: 0.022 |
| HLCS (UniProt P50747) | inactive: 0.012 |
| HNRNPR isoform 2 (UniProt O43390) | inactive: 0.022 |
| HSF1 (UniProt Q00613) | inactive: -0.024 |

| Target | log2 fold change |
| --- | --- |
| HNRNPA2B1 (UniProt P22626) | inactive: 0.048 |
| HNRNPA1 (UniProt P09651) | inactive: 0.016 |
| HOOK3 (UniProt Q86VS8) | inactive: 0.024 |
| HSPA1A (UniProt P0DMV8) | inactive: -0.007 |
| HSPA8 (UniProt P11142) | inactive: -0.008 |
| HHEX (UniProt Q03014) | inactive: 0.516 |
| HSPB1 (UniProt P04792) | inactive: -0.018 |
| HNRNPK isoform 2 (UniProt P61978) | inactive: 0.013 |
| HOXB9 (UniProt P17482) | inactive: 0.033 |
| HP1BP3 (UniProt Q5SSJ5) | inactive: 0.011 |
| HPS1 (UniProt Q92902) | inactive: 0.065 |
| HSP90AA1 isoform 2 (UniProt P07900) | inactive: -0.034 |
| HOMER1 (UniProt Q86YM7) | inactive: 0.007 |
| HNRNPA3 (UniProt P51991) | inactive: 0.02 |
| HIP1R (UniProt O75146) | inactive: -0.02 |
| HIP1 (UniProt O00291) | inactive: 0.045 |
